Experimental data taken from the supplement of paper PMC10849652.
Some of the results follow.

The chains behind the UniProt entries cited, without tags or fusion partners. Where a name states a change or a piece, a line headed by the entry shows the natural chain unless it says otherwise.
UniProt P68402: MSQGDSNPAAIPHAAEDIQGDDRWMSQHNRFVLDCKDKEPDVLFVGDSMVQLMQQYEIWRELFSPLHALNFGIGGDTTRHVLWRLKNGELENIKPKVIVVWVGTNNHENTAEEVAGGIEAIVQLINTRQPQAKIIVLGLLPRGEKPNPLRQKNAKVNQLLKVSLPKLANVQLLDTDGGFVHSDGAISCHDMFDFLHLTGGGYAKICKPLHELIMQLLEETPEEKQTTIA
UniProt O96013: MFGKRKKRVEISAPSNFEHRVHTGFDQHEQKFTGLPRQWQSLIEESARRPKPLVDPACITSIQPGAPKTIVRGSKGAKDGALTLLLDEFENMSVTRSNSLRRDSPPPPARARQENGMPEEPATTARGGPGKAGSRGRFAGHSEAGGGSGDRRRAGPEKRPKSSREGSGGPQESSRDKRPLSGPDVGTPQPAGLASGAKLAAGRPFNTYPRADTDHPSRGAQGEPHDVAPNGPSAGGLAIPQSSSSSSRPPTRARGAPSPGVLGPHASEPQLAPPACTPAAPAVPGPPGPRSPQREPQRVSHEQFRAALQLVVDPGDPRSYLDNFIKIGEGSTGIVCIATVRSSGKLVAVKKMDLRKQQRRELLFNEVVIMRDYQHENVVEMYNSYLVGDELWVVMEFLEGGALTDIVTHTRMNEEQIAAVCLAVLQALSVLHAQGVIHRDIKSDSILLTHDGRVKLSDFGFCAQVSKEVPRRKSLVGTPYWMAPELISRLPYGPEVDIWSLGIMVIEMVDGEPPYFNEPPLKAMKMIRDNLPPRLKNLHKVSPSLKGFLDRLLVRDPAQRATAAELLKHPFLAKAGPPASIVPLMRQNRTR
UniProt Q9UBV8: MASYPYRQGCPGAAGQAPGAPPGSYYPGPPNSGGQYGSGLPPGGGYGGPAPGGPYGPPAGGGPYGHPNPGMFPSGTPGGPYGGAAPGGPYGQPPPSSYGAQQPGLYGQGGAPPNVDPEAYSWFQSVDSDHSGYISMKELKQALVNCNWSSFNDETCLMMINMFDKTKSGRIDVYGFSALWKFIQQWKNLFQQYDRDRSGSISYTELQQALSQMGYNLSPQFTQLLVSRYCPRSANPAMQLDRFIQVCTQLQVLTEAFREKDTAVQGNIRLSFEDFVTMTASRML
UniProt Q6ZW49, whole entry, looked up: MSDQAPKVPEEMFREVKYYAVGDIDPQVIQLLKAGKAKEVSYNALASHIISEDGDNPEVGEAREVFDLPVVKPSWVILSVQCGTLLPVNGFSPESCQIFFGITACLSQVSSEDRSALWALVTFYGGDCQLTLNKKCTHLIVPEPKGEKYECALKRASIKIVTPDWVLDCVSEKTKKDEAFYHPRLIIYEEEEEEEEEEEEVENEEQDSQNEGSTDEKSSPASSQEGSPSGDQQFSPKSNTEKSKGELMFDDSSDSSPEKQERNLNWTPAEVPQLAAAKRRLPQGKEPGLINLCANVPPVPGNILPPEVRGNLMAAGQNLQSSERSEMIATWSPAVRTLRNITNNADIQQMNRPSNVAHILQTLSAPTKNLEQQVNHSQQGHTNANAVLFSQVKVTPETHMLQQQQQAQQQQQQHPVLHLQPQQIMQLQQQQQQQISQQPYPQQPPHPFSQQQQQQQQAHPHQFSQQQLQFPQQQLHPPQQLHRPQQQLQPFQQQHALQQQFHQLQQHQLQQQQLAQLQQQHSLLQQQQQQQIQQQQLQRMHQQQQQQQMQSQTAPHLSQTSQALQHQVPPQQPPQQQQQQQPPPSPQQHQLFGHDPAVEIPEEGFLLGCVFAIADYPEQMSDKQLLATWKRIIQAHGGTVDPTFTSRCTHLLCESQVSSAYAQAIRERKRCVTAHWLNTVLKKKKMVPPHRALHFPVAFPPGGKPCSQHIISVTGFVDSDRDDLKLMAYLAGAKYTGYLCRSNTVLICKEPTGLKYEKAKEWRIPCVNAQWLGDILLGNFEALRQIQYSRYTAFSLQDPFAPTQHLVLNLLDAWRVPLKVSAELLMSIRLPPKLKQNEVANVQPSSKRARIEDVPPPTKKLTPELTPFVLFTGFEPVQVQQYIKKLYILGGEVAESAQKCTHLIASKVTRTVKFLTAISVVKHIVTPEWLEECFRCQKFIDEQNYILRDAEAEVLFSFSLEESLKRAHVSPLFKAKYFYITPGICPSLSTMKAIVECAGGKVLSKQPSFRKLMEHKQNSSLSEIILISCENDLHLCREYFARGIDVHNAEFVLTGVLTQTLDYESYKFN
UniProt Q9BZ23: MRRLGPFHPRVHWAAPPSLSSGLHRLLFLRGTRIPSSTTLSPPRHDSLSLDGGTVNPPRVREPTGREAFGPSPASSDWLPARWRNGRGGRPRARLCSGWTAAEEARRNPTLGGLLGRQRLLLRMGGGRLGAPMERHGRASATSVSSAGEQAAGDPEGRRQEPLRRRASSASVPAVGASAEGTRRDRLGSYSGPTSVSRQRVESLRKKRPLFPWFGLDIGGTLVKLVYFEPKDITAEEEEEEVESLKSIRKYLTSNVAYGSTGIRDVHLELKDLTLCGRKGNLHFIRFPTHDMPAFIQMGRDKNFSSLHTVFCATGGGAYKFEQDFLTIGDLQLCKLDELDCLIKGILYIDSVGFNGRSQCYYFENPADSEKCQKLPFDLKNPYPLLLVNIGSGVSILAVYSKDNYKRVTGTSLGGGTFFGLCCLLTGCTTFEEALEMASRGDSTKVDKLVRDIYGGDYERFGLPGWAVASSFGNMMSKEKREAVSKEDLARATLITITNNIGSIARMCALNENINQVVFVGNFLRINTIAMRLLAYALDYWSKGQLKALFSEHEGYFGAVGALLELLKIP
UniProt Q99497, whole entry, looked up: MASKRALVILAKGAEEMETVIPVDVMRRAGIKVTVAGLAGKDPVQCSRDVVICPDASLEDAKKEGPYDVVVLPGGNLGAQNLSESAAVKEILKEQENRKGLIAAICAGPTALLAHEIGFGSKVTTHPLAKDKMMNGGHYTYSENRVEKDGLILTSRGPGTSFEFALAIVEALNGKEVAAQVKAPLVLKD
UniProt Q9BPZ3: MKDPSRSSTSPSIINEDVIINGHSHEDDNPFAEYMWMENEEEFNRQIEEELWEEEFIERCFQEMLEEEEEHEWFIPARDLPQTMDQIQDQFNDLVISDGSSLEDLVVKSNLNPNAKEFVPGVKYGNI
UniProt Q9NWT1: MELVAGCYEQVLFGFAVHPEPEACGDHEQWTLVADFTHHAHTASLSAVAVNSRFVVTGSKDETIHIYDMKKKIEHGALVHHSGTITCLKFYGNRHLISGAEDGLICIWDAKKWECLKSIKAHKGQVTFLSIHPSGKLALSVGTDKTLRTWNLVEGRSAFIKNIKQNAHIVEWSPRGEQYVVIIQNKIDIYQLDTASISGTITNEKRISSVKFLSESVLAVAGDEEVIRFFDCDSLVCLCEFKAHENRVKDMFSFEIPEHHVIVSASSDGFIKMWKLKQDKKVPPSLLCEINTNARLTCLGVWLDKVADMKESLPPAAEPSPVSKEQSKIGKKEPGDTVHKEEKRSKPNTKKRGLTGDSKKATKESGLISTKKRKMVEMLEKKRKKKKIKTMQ
UniProt Q9BUH6, whole entry, looked up: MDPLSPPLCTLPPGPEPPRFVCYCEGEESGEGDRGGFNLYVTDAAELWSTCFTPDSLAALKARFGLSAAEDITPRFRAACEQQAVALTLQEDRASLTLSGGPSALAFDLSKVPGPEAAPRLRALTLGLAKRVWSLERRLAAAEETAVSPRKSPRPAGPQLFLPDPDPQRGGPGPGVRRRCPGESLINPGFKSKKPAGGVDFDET
UniProt O43933: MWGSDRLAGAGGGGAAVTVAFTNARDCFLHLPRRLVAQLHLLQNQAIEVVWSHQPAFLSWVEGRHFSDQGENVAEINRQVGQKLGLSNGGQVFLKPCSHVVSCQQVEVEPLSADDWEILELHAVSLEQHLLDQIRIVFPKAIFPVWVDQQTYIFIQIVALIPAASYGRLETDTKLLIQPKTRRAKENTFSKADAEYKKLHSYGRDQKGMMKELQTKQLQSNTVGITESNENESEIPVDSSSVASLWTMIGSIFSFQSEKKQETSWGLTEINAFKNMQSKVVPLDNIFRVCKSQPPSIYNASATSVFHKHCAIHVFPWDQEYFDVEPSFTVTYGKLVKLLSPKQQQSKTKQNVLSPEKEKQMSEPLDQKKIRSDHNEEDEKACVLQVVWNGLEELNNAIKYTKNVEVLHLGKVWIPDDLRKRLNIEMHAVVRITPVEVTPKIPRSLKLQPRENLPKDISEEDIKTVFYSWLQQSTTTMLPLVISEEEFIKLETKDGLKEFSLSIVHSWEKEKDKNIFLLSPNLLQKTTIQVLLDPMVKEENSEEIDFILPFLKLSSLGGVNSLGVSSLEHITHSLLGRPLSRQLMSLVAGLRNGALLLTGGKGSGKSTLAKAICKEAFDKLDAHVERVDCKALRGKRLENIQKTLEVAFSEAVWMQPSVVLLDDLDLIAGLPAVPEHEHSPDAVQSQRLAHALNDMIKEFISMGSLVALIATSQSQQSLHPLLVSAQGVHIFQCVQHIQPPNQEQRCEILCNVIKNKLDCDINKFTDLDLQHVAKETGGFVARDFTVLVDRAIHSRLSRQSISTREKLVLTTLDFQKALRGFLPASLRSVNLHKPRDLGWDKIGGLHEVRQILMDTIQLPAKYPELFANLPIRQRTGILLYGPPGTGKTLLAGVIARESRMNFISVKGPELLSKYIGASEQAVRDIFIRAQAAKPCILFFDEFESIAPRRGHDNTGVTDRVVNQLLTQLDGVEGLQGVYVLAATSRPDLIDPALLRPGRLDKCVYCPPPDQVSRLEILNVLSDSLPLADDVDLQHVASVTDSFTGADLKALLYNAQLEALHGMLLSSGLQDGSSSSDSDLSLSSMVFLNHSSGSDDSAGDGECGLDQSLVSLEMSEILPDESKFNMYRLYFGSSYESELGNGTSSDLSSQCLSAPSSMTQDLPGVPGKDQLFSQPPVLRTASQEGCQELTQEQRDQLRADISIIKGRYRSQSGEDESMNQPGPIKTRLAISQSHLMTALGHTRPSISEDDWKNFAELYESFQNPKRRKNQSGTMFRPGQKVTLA
UniProt Q8NEN9: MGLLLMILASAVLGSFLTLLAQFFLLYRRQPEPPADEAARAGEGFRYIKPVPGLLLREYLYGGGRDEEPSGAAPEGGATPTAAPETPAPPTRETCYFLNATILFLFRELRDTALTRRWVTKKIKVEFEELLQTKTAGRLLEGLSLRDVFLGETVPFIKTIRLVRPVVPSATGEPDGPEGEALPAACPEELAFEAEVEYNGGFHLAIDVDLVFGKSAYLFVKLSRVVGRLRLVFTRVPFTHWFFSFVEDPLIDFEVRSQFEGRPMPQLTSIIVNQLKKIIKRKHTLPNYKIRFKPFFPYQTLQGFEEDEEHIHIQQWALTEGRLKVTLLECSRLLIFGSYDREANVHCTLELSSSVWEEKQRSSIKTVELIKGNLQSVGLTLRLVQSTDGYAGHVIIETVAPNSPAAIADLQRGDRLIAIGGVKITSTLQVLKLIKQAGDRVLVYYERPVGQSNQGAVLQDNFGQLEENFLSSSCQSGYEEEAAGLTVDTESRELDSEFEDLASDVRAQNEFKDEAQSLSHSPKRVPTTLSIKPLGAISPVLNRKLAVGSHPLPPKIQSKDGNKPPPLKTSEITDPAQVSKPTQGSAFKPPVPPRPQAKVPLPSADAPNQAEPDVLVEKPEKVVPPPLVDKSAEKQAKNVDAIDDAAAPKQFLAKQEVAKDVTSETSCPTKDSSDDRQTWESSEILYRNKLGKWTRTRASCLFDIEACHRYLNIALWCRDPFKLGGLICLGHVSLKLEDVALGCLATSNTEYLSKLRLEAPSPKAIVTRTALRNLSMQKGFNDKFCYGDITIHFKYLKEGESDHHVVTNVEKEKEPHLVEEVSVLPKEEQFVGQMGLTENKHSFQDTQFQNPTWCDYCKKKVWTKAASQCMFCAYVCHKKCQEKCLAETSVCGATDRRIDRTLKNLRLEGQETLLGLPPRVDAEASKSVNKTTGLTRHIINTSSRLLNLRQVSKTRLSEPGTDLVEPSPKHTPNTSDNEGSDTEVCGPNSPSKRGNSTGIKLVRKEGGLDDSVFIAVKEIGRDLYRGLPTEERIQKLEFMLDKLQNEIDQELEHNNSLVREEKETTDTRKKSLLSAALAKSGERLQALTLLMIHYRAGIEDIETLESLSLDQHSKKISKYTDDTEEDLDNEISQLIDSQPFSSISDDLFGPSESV
UniProt Q9UNF0: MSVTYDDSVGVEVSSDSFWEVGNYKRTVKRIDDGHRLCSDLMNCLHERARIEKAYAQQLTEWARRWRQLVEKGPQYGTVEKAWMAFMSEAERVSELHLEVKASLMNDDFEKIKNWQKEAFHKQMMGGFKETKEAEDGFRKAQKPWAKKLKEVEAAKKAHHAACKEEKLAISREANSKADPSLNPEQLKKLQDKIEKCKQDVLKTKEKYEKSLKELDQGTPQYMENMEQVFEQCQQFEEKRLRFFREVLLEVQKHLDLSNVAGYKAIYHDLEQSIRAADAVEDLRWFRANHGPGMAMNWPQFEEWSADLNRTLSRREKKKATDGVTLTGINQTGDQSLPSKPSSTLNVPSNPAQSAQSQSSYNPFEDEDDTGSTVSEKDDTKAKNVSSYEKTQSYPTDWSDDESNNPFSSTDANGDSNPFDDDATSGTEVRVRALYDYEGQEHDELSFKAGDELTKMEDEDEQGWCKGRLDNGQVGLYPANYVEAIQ

What was measured:
Assay in all cases: log2 fold change, soluble protein after heating vs DMSO (PISA); higher = thermal stabilisation; K562 cells, 10 uM, 30 min; active = over 0.2 and 3.5 SD of the protein, either way, in both replicates (recomputed)
[1] = compound: NC(=O)Nc1cc(-c2cccc(F)c2)sc1C(=O)N[C@H]1CCCNC1
Summary of the method: (§1)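 Aliquots of K562 cells (2×10^6 cells/mL) treated with 10 μM compound for 30 min were heated for 3 min over 48°C-58°C. After pooling and extraction in PBS with 0.5% NP-40 at 4°C, soluble protein from a 21,000xg, 90 min spin was quantified by TMTpro 16plex LC-MS/MS with channel sums equalised. Thermal stability is expressed against control samples, from duplicates, as a log2 fold change.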

[2] = compound: NC(=O)c1cnc(N[C@@H]2CCCC[C@@H]2N)nc1Nc1cccc(-n2nccn2)c1
Summary of the method: as §1

[3] = compound: NC1(c2ccc(-c3nc4ccn5c(=O)[nH]nc5c4cc3-c3ccccc3)cc2)CCC1
Summary of the method: as §1

[4] = compound: NCC(=O)Nc1ccc(-n2nc(C(F)(F)F)cc2-c2ccc3c(ccc4ccccc43)c2)cc1
Summary of the method: as §1

[5] = compound: Nc1ccccc1NC(=O)c1ccc(CNC(=O)OCc2cccnc2)cc1 [entinostat]
Summary of the method: as §1

[6] = compound: O=C(CCCCCCC(=O)Nc1ccccc1)NO [vorinostat]
Summary of the method: as §1

[7] = compound: O=C(CCCCCCNC(=O)c1cnc(N(c2ccccc2)c2ccccc2Cl)nc1)NO [citarinostat]
Summary of the method: as §1

[8] = compound: O=C(O)c1ccc2c(c1)nc(Nc1cccc(Cl)c1)c1ccncc12 [silmitasertib]
Summary of the method: as §1

[9] = compound: O=C1NC(=O)C(c2cnc3ccccn23)=C1c1cn2c3c(cc(F)cc13)CN(C(=O)N1CCCCC1)CC2
Summary of the method: as §1

[10] = compound: c1cc(OCCN2CCCCC2)cc(-c2n[nH]c3ccc(-c4nnc[nH]4)cc23)c1
Summary of the method: as §1

[11] = compound: c1cn2cc(-c3ccc4cn[nH]c4c3)nc(Nc3ccc(N4CCOCC4)cc3)c2n1 [entospletinib]
Summary of the method: as §1

Row | Target | log2 fold change [1] | log2 fold change [2] | log2 fold change [3] | log2 fold change [4] | log2 fold change [5] | log2 fold change [6] | log2 fold change [7] | log2 fold change [8] | log2 fold change [9] | log2 fold change [10] | log2 fold change [11]
1 | PCNT (UniProt O95613) | inactive: -0.341 | inactive: -0.277 | inactive: -0.106 | inactive: -0.294 | inactive: -0.129 | inactive: -0.137 | inactive: -0.076 | inactive: 0.11 | inactive: -0.142 | inactive: -0.233 | 
2 | PEX13 (UniProt Q92968) | inactive: -0.03 | inactive: -0.086 | inactive: -0.101 | inactive: -0.034 | inactive: -0.051 | inactive: -0.195 | inactive: 0.023 | inactive: 0.025 | inactive: 0.026 | inactive: -0.015 | 
3 | PDE2A (UniProt O00408) | inactive: 0.035 | inactive: -0.008 | inactive: -0.018 | inactive: -0.033 | inactive: -0.082 | inactive: 0.118 | inactive: -0.032 | inactive: 0.035 | inactive: -0.052 | inactive: 0.018 | 
4 | PDS5A (UniProt Q29RF7) | inactive: -0.076 | inactive: -0.024 | inactive: -0.061 | inactive: 0.018 | inactive: 0.306 | inactive: 0.062 | inactive: 0.068 | inactive: 0.017 | inactive: -0.103 | inactive: -0.075 | 
5 | PARN (UniProt O95453) | inactive: 0.012 | inactive: -0.042 | inactive: -0.1 | inactive: -0.087 | inactive: 0.015 | inactive: 0.03 | inactive: 0.056 | inactive: 0.028 | inactive: -0.069 | inactive: -0.082 | 
6 | PAFAH1B2 (UniProt P68402) | inactive: 0.015 | inactive: 0.049 | inactive: -0.037 | inactive: -0.025 | inactive: 0.045 | inactive: -0.088 | inactive: 0.021 | inactive: 0.106 | inactive: -0.048 | inactive: -0.097 | 
7 | PAK4 (UniProt O96013) | inactive: 0.048 | active: 0.388 | inactive: 0.015 | inactive: -0.038 | inactive: -0.083 | inactive: 0.01 | inactive: 0.003 | inactive: 0.041 | inactive: 0.017 | inactive: -0.039 | 
8 | PCBP1 (UniProt Q15365) | inactive: 0.007 | inactive: -0.015 | inactive: -0.069 | inactive: -0.021 | inactive: 0.044 | inactive: 0.055 | inactive: 0.075 | inactive: 0.028 | inactive: -0.046 | inactive: 0.002 | 
9 | PELP1 (UniProt Q8IZL8) | inactive: 0.071 | inactive: -0.068 | inactive: -0.046 | inactive: 0.071 | inactive: -0.022 | inactive: -0.003 | inactive: 0.038 | inactive: 0.078 | inactive: -0.084 | inactive: -0.027 | 
10 | PEF1 (UniProt Q9UBV8) | inactive: -0.029 | inactive: -0.026 | inactive: -0.219 | inactive: -0.036 | inactive: 0.128 | inactive: 0.01 | inactive: 0.045 | inactive: 0.028 | inactive: -0.103 | inactive: -0.02 | 
11 | PAGE4 (UniProt O60829) | inactive: 0.128 | inactive: 0.13 | inactive: 0.103 | inactive: 0.003 | inactive: 0.139 | inactive: -0.178 | inactive: 0.03 | inactive: 0.069 | inactive: 0.143 | inactive: -0.042 | inactive: -0.009
12 | PAXIP1 (UniProt Q6ZW49) | inactive: -0.089 | inactive: -0.517 | inactive: 0.008 | inactive: -0.088 | inactive: -0.092 | inactive: -0.092 | inactive: -0.209 | inactive: 0.111 | inactive: -0.034 | inactive: -0.068 | inactive: -0.163
13 | PDF (UniProt Q9HBH1) | inactive: -0.083 | inactive: -0.027 | inactive: -0.015 | inactive: -0.028 | inactive: -0.051 | inactive: 0.021 | inactive: -0.009 | inactive: 0.018 | inactive: 0.034 | inactive: 0.045 | inactive: 0.104
14 | PDLIM1 (UniProt O00151) | inactive: 0.032 | inactive: -0.046 | inactive: 0.028 | inactive: 0.023 | inactive: -0.001 | inactive: -0.008 | inactive: -0.017 | inactive: -0.035 | inactive: 0.004 | inactive: 0.056 | inactive: 0.022
15 | PDHX (UniProt O00330) | inactive: -0.013 | inactive: 0.098 | inactive: -0.034 | inactive: 0.115 | inactive: -0.013 | inactive: -0.053 | inactive: -0.023 | inactive: 0.049 | inactive: 0.048 | inactive: -0.174 | inactive: 0.019
16 | PCYOX1 (UniProt Q9UHG3) | inactive: 0.084 | inactive: 0 | inactive: 0.018 | inactive: -0.029 | inactive: 0.021 | inactive: 0.012 | inactive: 0.031 | inactive: 0 | inactive: -0.022 | inactive: -0.016 | inactive: -0.092
17 | PANK2 (UniProt Q9BZ23) | inactive: -0.051 | inactive: -0.03 | inactive: -0.047 | inactive: -0.006 | inactive: -0.07 | inactive: -0.024 | inactive: 0.145 | inactive: 0.046 | inactive: -0.003 | inactive: -0.06 | inactive: -0.05
18 | PARK7 (UniProt Q99497) | inactive: 0.251 | inactive: 0.074 | inactive: -0.042 | inactive: 0.244 | inactive: 0.112 | inactive: 0.041 | inactive: 0.165 | inactive: -0.098 | inactive: 0.031 | inactive: 0.07 | inactive: -0.063
19 | PAIP2 (UniProt Q9BPZ3) | inactive: 0.031 | inactive: 0.139 | inactive: -0.061 | inactive: 0.031 | inactive: -0.056 | inactive: 0.115 | inactive: -0.007 | inactive: 0.038 | inactive: 0.106 | inactive: -0.08 | inactive: 0.035
20 | PDXDC1 (UniProt Q6P996) | inactive: 0.003 | inactive: 0.206 | inactive: 0.125 | inactive: 0.16 | inactive: 0.035 | inactive: -0.163 | inactive: -0.033 | inactive: 0.19 | inactive: 0.027 | inactive: -0.157 | inactive: 0.207
21 | PAK1IP1 (UniProt Q9NWT1) | inactive: 0.072 | inactive: 0.078 | inactive: 0.255 | inactive: 0.153 | inactive: -0.063 | inactive: -0.006 | inactive: -0.119 | inactive: 0.243 | inactive: 0.263 | inactive: -0.215 | inactive: 0.101
22 | PAXX (UniProt Q9BUH6) | inactive: -0.029 | inactive: 0.037 | inactive: -0.003 | inactive: 0.006 | inactive: 0.003 | inactive: -0.005 | inactive: -0.003 | inactive: -0.017 | inactive: -0.054 | inactive: 0.018 | inactive: 0.015
23 | PARVB (UniProt Q9HBI1) | inactive: -0.017 | inactive: -0.06 | inactive: -0.093 | inactive: -0.039 | inactive: 0.011 | inactive: 0.096 | inactive: 0.035 | inactive: -0.022 | inactive: -0.022 | inactive: -0.038 | inactive: 0.018
24 | PEX1 (UniProt O43933) | inactive: -0.015 | inactive: 0.009 | inactive: -0.011 | inactive: -0.018 | inactive: -0.009 | inactive: 0.03 | inactive: 0 | inactive: 0.021 | inactive: -0.067 | inactive: -0.061 | inactive: 0.042
25 | PET100 (UniProt P0DJ07) | inactive: -0.009 | inactive: 0.008 | inactive: 0.032 | inactive: 0.005 | inactive: -0.122 | inactive: -0.054 | inactive: -0.03 | inactive: -0.079 | inactive: -0.027 | inactive: 0.016 | inactive: 0.014
26 | PDZD8 (UniProt Q8NEN9) | inactive: 0.025 | inactive: -0.072 | inactive: -0.09 | inactive: -0.047 | inactive: -0.003 | inactive: 0.023 | inactive: 0.029 | inactive: 0.099 | inactive: -0.045 | inactive: -0.056 | inactive: -0.014
27 | PAK3 isoform 3 (UniProt O75914) | inactive: 0.062 | inactive: -0.014 | inactive: 0.03 | inactive: 0.058 | inactive: 0.034 | inactive: 0.014 | inactive: 0.092 | inactive: -0.009 | inactive: -0.044 | inactive: 0.026 | inactive: -0.023
28 | PACSIN2 (UniProt Q9UNF0) | inactive: -0.054 | inactive: -0.137 | inactive: -0.139 | inactive: -0.05 | inactive: 0.106 | inactive: 0.127 | inactive: 0.06 | inactive: -0.014 | inactive: -0.015 | inactive: -0.059 | inactive: -0.01

2 entries picked at random from those above, as already listed:
Row | Target | log2 fold change [1] | log2 fold change [2] | log2 fold change [3] | log2 fold change [4] | log2 fold change [5] | log2 fold change [6] | log2 fold change [7] | log2 fold change [8] | log2 fold change [9] | log2 fold change [10] | log2 fold change [11]
28 | PACSIN2 (UniProt Q9UNF0) | inactive: -0.054 | inactive: -0.137 | inactive: -0.139 | inactive: -0.05 | inactive: 0.106 | inactive: 0.127 | inactive: 0.06 | inactive: -0.014 | inactive: -0.015 | inactive: -0.059 | inactive: -0.01
21 | PAK1IP1 (UniProt Q9NWT1) | inactive: 0.072 | inactive: 0.078 | inactive: 0.255 | inactive: 0.153 | inactive: -0.063 | inactive: -0.006 | inactive: -0.119 | inactive: 0.243 | inactive: 0.263 | inactive: -0.215 | inactive: 0.101
